Measurements taken from US7223850.
No constants are given. Whether binding was seen depends on the method and setting. Some entries that bind do so weakly or less than the wild type.

T1: RIP used as bait protein in the yeast two-hybrid system, Q13546
T1 chain: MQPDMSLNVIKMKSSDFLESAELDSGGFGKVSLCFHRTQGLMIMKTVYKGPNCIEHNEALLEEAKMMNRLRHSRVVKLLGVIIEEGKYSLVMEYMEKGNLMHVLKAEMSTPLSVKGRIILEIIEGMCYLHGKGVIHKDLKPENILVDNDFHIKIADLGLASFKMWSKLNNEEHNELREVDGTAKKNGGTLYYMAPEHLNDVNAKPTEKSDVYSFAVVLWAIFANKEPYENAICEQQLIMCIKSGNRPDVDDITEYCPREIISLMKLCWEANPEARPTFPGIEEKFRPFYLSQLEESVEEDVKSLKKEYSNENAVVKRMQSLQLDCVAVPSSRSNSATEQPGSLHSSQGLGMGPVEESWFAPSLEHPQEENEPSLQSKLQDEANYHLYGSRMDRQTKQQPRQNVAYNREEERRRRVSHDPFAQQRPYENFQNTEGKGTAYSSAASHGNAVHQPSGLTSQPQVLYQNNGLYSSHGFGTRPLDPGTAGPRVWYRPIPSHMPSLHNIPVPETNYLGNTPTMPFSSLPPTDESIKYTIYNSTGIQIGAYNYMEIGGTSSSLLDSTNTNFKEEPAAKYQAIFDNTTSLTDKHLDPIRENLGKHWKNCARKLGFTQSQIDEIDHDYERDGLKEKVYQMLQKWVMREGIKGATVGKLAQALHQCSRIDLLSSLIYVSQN

B1: RIP cloned from the Hela/Lymphocyte cDNA library in the yeast two-hybrid screen, Q13546 1-671 (enzyme, UniProt Q13546 1-671, looked up)
chain: T1 chain
B2: TRADD cloned from the Hela/Lymphocyte cDNA library in the yeast two-hybrid screen (protein, UniProt Q15628 1-312, looked up)
chain: MAAGQNGHEEWVGSAYLFVESSLDKVVLSDAYAHPQQKVAVYRALQAALAESGGSPDVLQMLKIHRSDPQLIVQLRFCGRQPCGRFLRAYREGALRAALQRSLAAALAQHSVPLQLELRAGAERLDALLADEERCLSCILAQQPDRLRDEELAELEDALRNLKCGSGARGGDGEVASAPLQPPVPSLSEVKPPPPPPPAQTFLFQGQPVVNRPLSLKDQQTFARSVGLKWRKVGRSLQRGCRALRDPALDSLAYEYEREGLYEQAFQLLRRFVQAEGRRATLQRLVEALEENELTSLAEDLLGLTDPNGGLA
B3: TRAF1 cloned from the Hela/Lymphocyte cDNA library in the yeast two-hybrid screen (protein, UniProt Q13077 1-416, looked up)
chain: MASSSGSSPRPAPDENEFPFGCPPTVCQDPKEPRALCCAGCLSENPRNGEDQICPKCRGEDLQSISPGSRLRTQEKAHPEVAEAGIGCPFAGVGCSFKGSPQSVQEHEVTSQTSHLNLLLGFMKQWKARLGCGLESGPMALEQNLSDLQLQAAVEVAGDLEVDCYRAPCSESQEELALQHFMKEKLLAELEGKLRVFENIVAVLNKEVEASHLALATSIHQSQLDRERILSLEQRVVELQQTLAQKDQALGKLEQSLRLMEEASFDGTFLWKITNVTRRCHESACGRTVSLFSPAFYTAKYGYKLCLRLYLNGDGTGKRTHLSLFIVIMRGEYDALLPWPFRNKVTFMLLDQNNREHAIDAFRPDLSSASFQRPQSETNVASGCPLFFPLSKLQSPKHAYVKDDTMFLKCIVETST
B4: TRAF2 as tested in the yeast two-hybrid system, Q12933 1-501 (protein, UniProt Q12933 1-501, looked up)
chain: MAAASVTPPGSLELLQPGFSKTLLGTKLEAKYLCSACRNVLRRPFQAQCGHRYCSFCLASILSSGPQNCAACVHEGIYEEGISILESSSAFPDNAARREVESLPAVCPSDGCTWKGTLKEYESCHEGRCPLMLTECPACKGLVRLGEKERHLEHECPERSLSCRHCRAPCCGADVKAHHEVCPKFPLTCDGCGKKKIPREKFQDHVKTCGKCRVPCRFHAIGCLETVEGEKQQEHEVQWLREHLAMLLSSVLEAKPLLGDQSHAGSELLQRCESLEKKTATFENIVCVLNREVERVAMTAEACSRQHRLDQDKIEALSSKVQQLERSIGLKDLAMADLEQKVLEMEASTYDGVFIWKISDFARKRQEAVAGRIPAIFSPAFYTSRYGYKMCLRIYLNGDGTGRGTHLSLFFVVMKGPNDALLRWPFNQKVTLMLLDQNNREHVIDAFRPDVTSSSFQRPVNDMNIASGCPLFCPVSKMEAKNSYVRDDAIFIKAIVDLTGL

Key:
[1] = biological target: T1, RIP used as bait protein in the yeast …; assay: yeast two-hybrid screen, RIP as bait, Hela/Lymphocyte cDNA library; conditions: remark: other sources report otherwise
[2] = biological target: RIP used as bait protein in the yeast two-hybrid system (UniProt Q13546); assay: as above

| Binder | binding [1] | binding [2] |
| --- | --- | --- |
| B1 | binds | – |
| B2 | – | binds |
| B3 | – | binds |
| B4 | binds | – |
